# Test results taken from publication PMC10282026.
# The chains behind the UniProt entries cited, without tags or fusion partners.
# UniProt P62137: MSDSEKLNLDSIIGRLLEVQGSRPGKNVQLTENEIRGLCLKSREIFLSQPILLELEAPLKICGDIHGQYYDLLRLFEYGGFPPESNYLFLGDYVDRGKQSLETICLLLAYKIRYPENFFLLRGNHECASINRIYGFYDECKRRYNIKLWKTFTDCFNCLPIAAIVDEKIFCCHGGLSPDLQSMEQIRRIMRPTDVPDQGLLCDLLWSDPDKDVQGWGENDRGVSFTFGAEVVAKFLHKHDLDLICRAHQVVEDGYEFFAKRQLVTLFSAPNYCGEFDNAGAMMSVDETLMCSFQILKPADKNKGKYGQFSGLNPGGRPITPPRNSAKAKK
# No constants are given. Whether binding was seen depends on the method and setting. Binding seen in cells or lysates may run through a third protein. Some results given as binding are weak or reduced against the parent protein; the word gives no strength.
# Biological target: T1, Cyclin L1 (UniProt Q52KE7)
# T1 sequence: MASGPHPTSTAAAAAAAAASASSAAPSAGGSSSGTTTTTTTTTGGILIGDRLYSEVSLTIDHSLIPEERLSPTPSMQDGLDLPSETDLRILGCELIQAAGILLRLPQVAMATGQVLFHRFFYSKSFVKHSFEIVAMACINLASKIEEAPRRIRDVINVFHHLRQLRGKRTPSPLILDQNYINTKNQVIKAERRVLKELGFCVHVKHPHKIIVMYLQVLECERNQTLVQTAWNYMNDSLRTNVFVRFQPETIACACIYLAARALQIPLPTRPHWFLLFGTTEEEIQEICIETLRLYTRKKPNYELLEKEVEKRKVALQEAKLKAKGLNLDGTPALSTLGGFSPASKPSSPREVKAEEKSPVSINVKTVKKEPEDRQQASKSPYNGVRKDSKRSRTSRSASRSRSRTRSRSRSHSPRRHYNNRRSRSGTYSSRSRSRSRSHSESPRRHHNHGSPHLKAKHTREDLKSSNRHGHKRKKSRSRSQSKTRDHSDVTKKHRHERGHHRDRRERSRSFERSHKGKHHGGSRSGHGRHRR
# Assay: co-IP; Co-IP of CCNL1 and PPP1CA (Supplementary Fig. 8a); cells and direction not told in the main text
substance,measurement,value
PPP1CA (from UniProt P62137 1-330) (enzyme),binding,binds
